# Test results published in the supplement of paper PMC8728848.
# The list shows a part of the results.
# B1: HFR-3 (Triticum aestivum) (protein)
# chain: MKGLLLCALALAFAAVTTHAQLQSCPTRCGKQADGMECPNNLCCSKDGYCGLGVDYCSAGAGCQSGACYDNKICGAQANGTLCRNNHCCSSGGRCGYGREYCSNGCQGGPCWADLKCGHLDNGKLCPNNLCCSQYGYCGLGPEFCGTGCQNGACSTDKPCGNKANGAPCTNNYCCSQYGSCGLGKDYCGTGCQNGACN
# Key:
# Assay in all cases: glycan array binding signal (z-score within array); higher = stronger binding
# Details in all cases: glycan notation: IUPAC condensed, linker removed
# [1] = biological target: Gal(b1-4)GlcNAc(b1-2)[Gal(b1-4)GlcNAc(b1-6)]Man(a1-6)[GlcNAc(b1-4)][Gal(b1-4)GlcNAc(b1-2)[Gal(b1-4)GlcNAc(b1-4)]Man(a1-3)]Man(b1-4)GlcNAc(b1-4)[Fuc(a1-6)]GlcNAc
# How it was run: (§1)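 Columns mapping to the same glycan were averaged after glycan names were converted to IUPAC-condensed notation. The data come from 3228 arrays in the Consortium for Functional Glycomics database, limited to those with an available protein sequence. Binding is reported as a within-array Z-score averaged across arrays of one protein sequence and across linkers.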
# [2] = biological target: Gal(b1-4)GlcNAc(b1-3)Gal(b1-3)GalNAc
# How it was run: as §1
# [3] = biological target: Gal(b1-4)GlcNAc(b1-3)Gal(b1-3)GlcNAc
# How it was run: as §1
# [4] = biological target: Gal(b1-4)GlcNAc(b1-3)Gal(b1-4)Glc
# How it was run: as §1
# [5] = biological target: Gal(b1-4)GlcNAc(b1-3)Gal(b1-4)GlcNAc
# How it was run: as §1
# [6] = biological target: Gal(b1-4)GlcNAc(b1-3)Gal(b1-4)GlcNAc(b1-2)Man(a1-3)[Gal(b1-4)GlcNAc(b1-3)Gal(b1-4)GlcNAc(b1-2)Man(a1-6)]Man(b1-4)GlcNAc(b1-4)GlcNAc
# How it was run: as §1
# [7] = biological target: Gal(b1-4)GlcNAc(b1-3)Gal(b1-4)GlcNAc(b1-2)Man(a1-3)[Gal(b1-4)GlcNAc(b1-3)Gal(b1-4)GlcNAc(b1-2)Man(a1-6)]Man(b1-4)GlcNAc(b1-4)[Fuc(a1-6)]GlcNAc
# How it was run: as §1
# [8] = biological target: Gal(b1-4)GlcNAc(b1-3)Gal(b1-4)GlcNAc(b1-2)[Gal(b1-4)GlcNAc(b1-3)Gal(b1-4)GlcNAc(b1-6)]Man(a1-6)[Gal(b1-4)GlcNAc(b1-3)Gal(b1-4)GlcNAc(b1-2)Man(a1-3)]Man(b1-4)GlcNAc(b1-4)GlcNAc
# How it was run: as §1
# [9] = biological target: Gal(b1-4)GlcNAc(b1-3)Gal(b1-4)GlcNAc(b1-2)[Gal(b1-4)GlcNAc(b1-3)Gal(b1-4)GlcNAc(b1-6)]Man(a1-6)[Gal(b1-4)GlcNAc(b1-3)Gal(b1-4)GlcNAc(b1-2)Man(a1-3)]Man(b1-4)GlcNAc(b1-4)[Fuc(a1-6)]GlcNAc
# How it was run: as §1
# [10] = biological target: Gal(b1-4)GlcNAc(b1-3)Gal(b1-4)GlcNAc(b1-3)Gal(b1-4)GlcNAc
# How it was run: as §1
# [11] = biological target: Gal(b1-4)GlcNAc(b1-3)Gal(b1-4)GlcNAc(b1-3)Gal(b1-4)GlcNAc(b1-2)Man(a1-3)[Gal(b1-4)GlcNAc(b1-3)Gal(b1-4)GlcNAc(b1-3)Gal(b1-4)GlcNAc(b1-2)Man(a1-6)]Man(b1-4)GlcNAc(b1-4)GlcNAc
# How it was run: as §1
# [12] = biological target: Gal(b1-4)GlcNAc(b1-3)Gal(b1-4)GlcNAc(b1-3)Gal(b1-4)GlcNAc(b1-2)Man(a1-3)[Gal(b1-4)GlcNAc(b1-3)Gal(b1-4)GlcNAc(b1-3)Gal(b1-4)GlcNAc(b1-2)Man(a1-6)]Man(b1-4)GlcNAc(b1-4)[Fuc(a1-6)]GlcNAc
# How it was run: as §1
# [13] = biological target: Gal(b1-4)GlcNAc(b1-3)Gal(b1-4)GlcNAc(b1-3)Gal(b1-4)GlcNAc(b1-2)[Gal(b1-4)GlcNAc(b1-3)Gal(b1-4)GlcNAc(b1-3)Gal(b1-4)GlcNAc(b1-6)]Man(a1-6)[Gal(b1-4)GlcNAc(b1-3)Gal(b1-4)GlcNAc(b1-3)Gal(b1-4)GlcNAc(b1-2)Man(a1-3)]Man(b1-4)GlcNAc(b1-4)[Fuc(a1-6)]GlcNAc
# How it was run: as §1
# [14] = biological target: Gal(b1-4)GlcNAc(b1-3)Gal(b1-4)GlcNAc(b1-3)Gal(b1-4)GlcNAc(b1-3)Gal(b1-4)GlcNAc(b1-2)Man(a1-3)[Gal(b1-4)GlcNAc(b1-3)Gal(b1-4)GlcNAc(b1-3)Gal(b1-4)GlcNAc(b1-3)Gal(b1-4)GlcNAc(b1-2)Man(a1-6)]Man(b1-4)GlcNAc(b1-4)GlcNAc
# How it was run: as §1
# [15] = biological target: Gal(b1-4)GlcNAc(b1-3)Gal(b1-4)GlcNAc(b1-3)Gal(b1-4)GlcNAc(b1-3)Gal(b1-4)GlcNAc(b1-2)Man(a1-3)[Gal(b1-4)GlcNAc(b1-3)Gal(b1-4)GlcNAc(b1-3)Gal(b1-4)GlcNAc(b1-3)Gal(b1-4)GlcNAc(b1-2)Man(a1-6)]Man(b1-4)GlcNAc(b1-4)[Fuc(a1-6)]GlcNAc
# How it was run: as §1
# [16] = biological target: Gal(b1-4)GlcNAc(b1-3)Gal(b1-4)GlcNAc(b1-3)Gal(b1-4)GlcNAc(b1-3)Gal(b1-4)GlcNAc(b1-2)[Gal(b1-4)GlcNAc(b1-3)Gal(b1-4)GlcNAc(b1-3)Gal(b1-4)GlcNAc(b1-3)Gal(b1-4)GlcNAc(b1-6)]Man(a1-6)[Gal(b1-4)GlcNAc(b1-3)Gal(b1-4)GlcNAc(b1-3)Gal(b1-4)GlcNAc(b1-3)Gal(b1-4)GlcNAc(b1-2)Man(a1-3)]Man(b1-4)GlcNAc(b1-4)[Fuc(a1-6)]GlcNAc
# How it was run: as §1
# [17] = biological target: Gal(b1-4)GlcNAc(b1-3)Gal(b1-4)GlcNAc(b1-3)Gal(b1-4)GlcNAc(b1-3)Gal(b1-4)GlcNAc(b1-3)Gal(b1-4)GlcNAc(b1-2)Man(a1-3)[Gal(b1-4)GlcNAc(b1-3)Gal(b1-4)GlcNAc(b1-3)Gal(b1-4)GlcNAc(b1-3)Gal(b1-4)GlcNAc(b1-3)Gal(b1-4)GlcNAc(b1-2)Man(a1-6)]Man(b1-4)GlcNAc(b1-4)GlcNAc
# How it was run: as §1
# [18] = biological target: Gal(b1-4)GlcNAc(b1-3)Gal(b1-4)GlcNAc(b1-3)Gal(b1-4)GlcNAc(b1-3)Gal(b1-4)GlcNAc(b1-3)Gal(b1-4)GlcNAc(b1-2)Man(a1-3)[Gal(b1-4)GlcNAc(b1-3)Gal(b1-4)GlcNAc(b1-3)Gal(b1-4)GlcNAc(b1-3)Gal(b1-4)GlcNAc(b1-3)Gal(b1-4)GlcNAc(b1-2)Man(a1-6)]Man(b1-4)GlcNAc(b1-4)[Fuc(a1-6)]GlcNAc
# How it was run: as §1
# [19] = biological target: Gal(b1-4)GlcNAc(b1-3)Gal(b1-4)GlcNAc(b1-3)Gal(b1-4)GlcNAc(b1-3)Gal(b1-4)GlcNAc(b1-3)Gal(b1-4)GlcNAc(b1-2)[Gal(b1-4)GlcNAc(b1-3)Gal(b1-4)GlcNAc(b1-3)Gal(b1-4)GlcNAc(b1-3)Gal(b1-4)GlcNAc(b1-3)Gal(b1-4)GlcNAc(b1-6)]Man(a1-6)[Gal(b1-4)GlcNAc(b1-3)Gal(b1-4)GlcNAc(b1-3)Gal(b1-4)GlcNAc(b1-3)Gal(b1-4)GlcNAc(b1-3)Gal(b1-4)GlcNAc(b1-2)Man(a1-3)]Man(b1-4)GlcNAc(b1-4)[Fuc(a1-6)]GlcNAc
# How it was run: as §1
# [20] = biological target: Gal(b1-4)GlcNAc(b1-3)Gal(b1-4)GlcNAc(b1-3)Gal(b1-4)GlcNAc(b1-3)Gal(b1-4)GlcNAc(b1-3)Gal(b1-4)GlcNAc(b1-3)Gal(b1-4)GlcNAc(b1-2)Man(a1-3)[Gal(b1-4)GlcNAc(b1-3)Gal(b1-4)GlcNAc(b1-3)Gal(b1-4)GlcNAc(b1-3)Gal(b1-4)GlcNAc(b1-3)Gal(b1-4)GlcNAc(b1-3)Gal(b1-4)GlcNAc(b1-2)Man(a1-6)]Man(b1-4)GlcNAc(b1-4)GlcNAc
# How it was run: as §1
# [21] = biological target: Gal(b1-4)GlcNAc(b1-3)Gal(b1-4)GlcNAc(b1-3)GalNAc
# How it was run: as §1
# [22] = biological target: Gal(b1-4)GlcNAc(b1-3)Gal(b1-4)GlcNAc(b1-3)[Gal(b1-4)GlcNAc(b1-3)Gal(b1-4)GlcNAc(b1-6)]GalNAc
# How it was run: as §1
# [23] = biological target: Gal(b1-4)GlcNAc(b1-3)Gal(b1-4)GlcNAc(b1-6)[Gal(b1-3)]GalNAc
# How it was run: as §1
binder,measurement,setting,value
B1,glycan array binding signal (z-score),[1],-1.17
same,glycan array binding signal (z-score),[2],1.2
same,glycan array binding signal (z-score),[3],0.558
same,glycan array binding signal (z-score),[4],-1.16
same,glycan array binding signal (z-score),[5],-0.137
same,glycan array binding signal (z-score),[6],0.764
same,glycan array binding signal (z-score),[7],-0.313
same,glycan array binding signal (z-score),[8],0.637
same,glycan array binding signal (z-score),[9],0.428
same,glycan array binding signal (z-score),[10],2.1
same,glycan array binding signal (z-score),[11],0.533
same,glycan array binding signal (z-score),[12],-1.25
same,glycan array binding signal (z-score),[13],2.51
same,glycan array binding signal (z-score),[14],0.946
same,glycan array binding signal (z-score),[15],-0.145
same,glycan array binding signal (z-score),[16],-0.012
same,glycan array binding signal (z-score),[17],0.374
same,glycan array binding signal (z-score),[18],0.11
same,glycan array binding signal (z-score),[19],0.356
same,glycan array binding signal (z-score),[20],0.492
same,glycan array binding signal (z-score),[21],0.2
same,glycan array binding signal (z-score),[22],0.425
same,glycan array binding signal (z-score),[23],0.491

# No new results follow: an excerpt of the list.
binder,measurement,setting,value
B1,glycan array binding signal (z-score),[6],0.764
same,glycan array binding signal (z-score),[7],-0.313
